Measurements as given in article PMC11817702.
These are yes or no findings as the source states them, for the method shown. In cells and extracts the contact can be indirect. Some results given as binding are weak or reduced against the parent protein; the word gives no strength. Where a sequence is shown, tags or fusion partners need not be part of it.

By UniProt entry, the sequences of proteins in these tests, tags left out.
UniProt Q61056: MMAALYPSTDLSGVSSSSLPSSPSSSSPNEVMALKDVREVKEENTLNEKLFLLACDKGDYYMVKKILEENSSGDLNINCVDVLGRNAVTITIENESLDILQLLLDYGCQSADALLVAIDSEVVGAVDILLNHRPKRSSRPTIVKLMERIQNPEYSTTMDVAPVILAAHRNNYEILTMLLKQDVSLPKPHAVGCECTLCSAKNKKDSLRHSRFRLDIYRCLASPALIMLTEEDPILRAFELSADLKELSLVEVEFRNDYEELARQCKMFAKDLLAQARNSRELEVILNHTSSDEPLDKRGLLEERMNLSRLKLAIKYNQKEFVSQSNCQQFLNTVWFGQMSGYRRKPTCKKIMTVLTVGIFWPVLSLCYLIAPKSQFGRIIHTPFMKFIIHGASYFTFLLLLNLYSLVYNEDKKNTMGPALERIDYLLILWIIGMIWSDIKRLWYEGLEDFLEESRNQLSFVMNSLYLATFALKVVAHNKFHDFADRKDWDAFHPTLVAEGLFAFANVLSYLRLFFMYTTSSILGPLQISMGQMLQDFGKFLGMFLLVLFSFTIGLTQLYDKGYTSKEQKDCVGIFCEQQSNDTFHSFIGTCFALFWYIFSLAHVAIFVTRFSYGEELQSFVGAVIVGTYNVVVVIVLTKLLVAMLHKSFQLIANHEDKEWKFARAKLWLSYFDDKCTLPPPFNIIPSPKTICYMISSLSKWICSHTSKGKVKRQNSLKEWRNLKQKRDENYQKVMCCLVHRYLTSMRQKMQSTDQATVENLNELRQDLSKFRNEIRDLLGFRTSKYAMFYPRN

Target: T1, CRY2-FLAG (cryptochrome circadian regulator 2 with a FLAG tag) (UniProt Q9R194)
T1 sequence: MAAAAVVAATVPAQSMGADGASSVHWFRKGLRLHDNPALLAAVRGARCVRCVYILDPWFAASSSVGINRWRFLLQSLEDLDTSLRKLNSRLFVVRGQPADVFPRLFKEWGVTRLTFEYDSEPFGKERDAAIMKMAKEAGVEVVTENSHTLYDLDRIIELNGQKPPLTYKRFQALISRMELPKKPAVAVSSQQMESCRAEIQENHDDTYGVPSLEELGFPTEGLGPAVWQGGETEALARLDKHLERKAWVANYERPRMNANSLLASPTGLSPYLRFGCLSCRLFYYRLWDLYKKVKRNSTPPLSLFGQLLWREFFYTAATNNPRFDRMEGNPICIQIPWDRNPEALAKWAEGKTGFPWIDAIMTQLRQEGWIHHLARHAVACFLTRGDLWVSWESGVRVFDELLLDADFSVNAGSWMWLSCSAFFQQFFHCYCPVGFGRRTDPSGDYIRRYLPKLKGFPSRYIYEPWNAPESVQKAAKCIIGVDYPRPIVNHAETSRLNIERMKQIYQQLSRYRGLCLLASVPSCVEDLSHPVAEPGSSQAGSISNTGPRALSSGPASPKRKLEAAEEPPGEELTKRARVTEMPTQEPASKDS
Assay: co-IP; C2C12 cells transfected with CRY2-FLAG; cytosolic and nuclear fractions taken 6 h after PEMF or sham exposure; diluted in IP buffer (25 mM Tris HCl pH 8, 150 mM NaCl, 1% Triton X-100, 5% glycerol); pre-cleared; FLAG antibody overnight at 4 °C, then protein A/G PLUS Agarose; Western blot for TRPC1; IgG control

binding: binds
Substance: transient receptor potential canonical 1 (TRPC1) (from UniProt Q61056 1-793)
